Measured values reported in article PMC12386809, “Phenanthrene Monomers and Dimers from Juncus tenuis with Antiproliferative Activity and Synergistic Effect with Doxorubicin Against Human Colon Cancer Cell Lines” (International Journal of Molecular Sciences, 2025).

Legend:
Assay type in all cases: cell-based
[1] = tested on: COLO 205 (doxorubicin-sensitive) human colonic adenocarcinoma cells; test: MTT antiproliferative assay, COLO 205; settings: selectivity index, ratio of IC50 CCD-19Lu / COLO 205
Experimental: (§1) The antiproliferative effects of the isolated phenanthrenes (compounds 1–19) were evaluated using human cancer cell lines, including doxorubicin-sensitive colonic adenocarcinoma COLO 205 and multidrug-resistant colonic adenocarcinoma COLO 320/MDR-LRP (which expresses P-glycoprotein [MDR1] and LRP), as well as non-cancerous human lung fibroblast CCD-19Lu cells. CCD-19Lu was chosen because it is a well-characterized, non-tumorigenic cell line commonly used to assess general cytotoxicity. Moreover, data from the literature support the use of lung fibroblast cell lines—including CCD-19Lu—as normal controls in studies involving colon cancer cells such as Colo 205 and Colo 320 [33]. The thiazolyl blue tetrazolium bromide (MTT) assay was employed to determine the concentration of each compound required to inhibit 50% of the cell viability (IC50), as summarized in Table 3.
(§2) The human colon adenocarcinoma cells—COLO 205 (CCL-222, doxorubicin-sensitive) and COLO 320/MDR-LRP (ATCC-CCL-220.1, multidrug-resistant, expressing P-gp)—were cultured in RPMI 1640 medium supplemented with 10% heat-inactivated fetal bovine serum, 2 mM of L-glutamine, 1 mM of sodium pyruvate, and 100 mM of HEPES. The non-cancerous human lung fibroblast cell line CCD-19Lu was maintained in Eagle’s Minimal Essential Medium (EMEM; containing 4.5 g/L of glucose) supplemented with a non-essential amino acid mixture, selected vitamins, and 10% heat-inactivated fetal bovine serum. All of the cell lines were detached using 0.25% trypsin and 0.02% EDTA for 5 min at 37 °C. The cell lines were obtained from LGC Promochem (Teddington, England).
(§3) Human colonic adenocarcinoma cell lines—doxorubicin-sensitive COLO 205 and multidrug-resistant COLO 320—as well as the non-cancerous human lung fibroblast cell line CCD-19Lu were used to evaluate the effects of the test compounds on cell proliferation. The assays were conducted in 96-well flat-bottomed microtiter plates. Stock solutions of the compounds were prepared in dimethyl sulfoxide (DMSO), with the final DMSO concentration kept below 1% in all samples. The compounds were diluted in 100 µL of the appropriate culture medium. Adherent cells were cultured in EMEM supplemented with 10% heat-inactivated fetal bovine serum and seeded into 96-well plates at a density of 6 × 10^3 cells per 100 µL per well. The cells were allowed to adhere for 24 h at 37 °C in a humidified incubator with 5% CO2. After incubation, the medium was removed and replaced with 100 µL of fresh medium. Serial dilutions of the compounds were prepared in separate plates and added to the cells, starting from a concentration of 100 µM with twofold serial dilutions (final concentration range: 100–0.19 µM). The cells were then incubated for 72 h at 37 °C. At the end of the incubation period, 20 µL of thiazolyl blue tetrazolium bromide (MTT) solution (5 mg/mL, Sigma) was added to each well. After 4 h of incubation at 37 °C, 100 µL of 10% sodium dodecyl sulfate (SDS) in 0.01 M HCl was added to solubilize the formazan crystals, and the plates were incubated overnight at 37 °C. Cell viability was assessed by measuring the optical density (OD) at 540/630 nm using a Multiscan EX ELISA reader (Thermo Labsystems, Cheshire, WA, USA).
(§4) The inhibitory concentration that reduced cell growth by 50% (IC50) was determined from the dose–response curves. The percent inhibition was calculated using the formula100 − ((OD_sample − OD_medium control)/(OD_cell control − OD_medium control)) × 100
(§5) Dose–response curves were generated by plotting the percent inhibition against the logarithm of the compound concentrations and fitted using Prism5 software (Version 6, GraphPad Software Inc., San Diego, CA, USA). The IC50 values were derived from four independent experiments conducted in parallel for each cell line and are reported as the mean values.

[2] = tested on: COLO 320/MDR-LRP multidrug-resistant human colonic adenocarcinoma cells; test: MTT antiproliferative assay, COLO 320; settings: selectivity index; for SI CCD-19Lu/ COLO 320: ratio of IC50 CCD-19Lu / COLO 320; for SI COLO 205/ COLO 320: ratio of IC50 COLO 205 / COLO 320
Experimental: as §1, §2, §3, §4, §5

[3] = tested on: CCD-19Lu non-cancerous human lung fibroblast cells; test: MTT antiproliferative assay, CCD-19Lu; settings: cancer cells vs CCD-19Lu, from SI
Experimental: as §1, §2
Human colonic adenocarcinoma cell lines—doxorubicin-sensitive COLO 205 and multidrug-resistant COLO 320—as well as the non-cancerous human lung fibroblast cell line CCD-19Lu were used to evaluate the effects of the test compounds on cell proliferation. The assays were conducted in 96-well flat-bottomed microtiter plates. […] Cell viability was assessed by measuring the optical density (OD) at 540/630 nm using a Multiscan EX ELISA reader (Thermo Labsystems, Cheshire, WA, USA). […]

## C=Cc1cc2c(ccc3c(C)c(O)ccc32)cc1CO [Compound 2, tenuin B]
[1]
  SI CCD-19Lu/ COLO 205: 1.99
[2]
  SI CCD-19Lu/ COLO 320: 2.51
  SI COLO 205/ COLO 320: 1.26

## C=Cc1cc(O)c(CO)c2c1-c1ccc(O)c(C)c1CC2 [Compound 3, 2,7-dihydroxy-8-hydroxymethyl-1-methyl-5-vinyl-9,10-dihydrophenanthrene]
[1]
  SI CCD-19Lu/ COLO 205: ≤0.97
[2]
  SI CCD-19Lu/ COLO 320: ≤0.97

## C=Cc1cc(O)cc2c1-c1cc(-c3cc4c(c(C)c3O)CCc3cc(O)cc(C(C)OC)c3-4)c(O)c(C)c1CC2 (centres unmarked) [Compound 4, tenuin D]
[1]
  SI CCD-19Lu/ COLO 205: 1.31
[2]
  SI CCD-19Lu/ COLO 320: 0.63
  SI COLO 205/ COLO 320: 0.49
[3]
  selectivity towards tumor cells (in words): lacked selectivity

## C=Cc1cc(O)cc2c1-c1cc(-c3c(O)cc4c(c3C=C)-c3ccc(O)c(C)c3CC4)c(O)c(C)c1CC2 [Compound 5, 1,1′-dimethyl-5,5′-divinyl-9,9′,10,10′-tetrahydro-[6,3′-biphenanthrene]-2,2′,7,7′-tetraol]
[1]
  SI CCD-19Lu/ COLO 205: 1.19
[2]
  SI CCD-19Lu/ COLO 320: 1.15
  SI COLO 205/ COLO 320: 0.97
[3]
  selectivity towards tumor cells (in words): lacked selectivity

## C=Cc1cc(O)cc2ccc3c(C)c(O)ccc3c12 [Compound 6, dehydroeffusol]
[1]
  SI CCD-19Lu/ COLO 205: 1.58
[2]
  SI CCD-19Lu/ COLO 320: 1.63
  SI COLO 205/ COLO 320: 1.03

## C=Cc1c(C)c(O)cc2ccc3c(C)c(O)ccc3c12 [Compound 7, dehydrojuncusol]
[1]
  SI CCD-19Lu/ COLO 205: 1.49
[2]
  SI CCD-19Lu/ COLO 320: 0.93
  SI COLO 205/ COLO 320: 0.62

## C=Cc1c(C)c(O)cc2c1ccc1c(C)c(O)ccc12 [Compound 8, dehydrojuncuenin B]
[1]
  SI CCD-19Lu/ COLO 205: 1.10
[2]
  SI CCD-19Lu/ COLO 320: 1.27
  SI COLO 205/ COLO 320: 1.16

## C=Cc1c(CO)ccc2c1ccc1c(C)c(O)ccc12 [Compound 9]
[1]
  SI CCD-19Lu/ COLO 205: ≤0.75
[2]
  SI CCD-19Lu/ COLO 320: 1.77
  SI COLO 205/ COLO 320: ≥2.35

## C=Cc1cc(O)cc2c1-c1ccc(O)c(C)c1CC2 [Compound 10, effusol]
[1]
  SI CCD-19Lu/ COLO 205: 1.82
[2]
  SI CCD-19Lu/ COLO 320: 1.93
  SI COLO 205/ COLO 320: 1.06

## C=Cc1c(C)c(O)cc2c1-c1ccc(O)c(C)c1CC2 [Compound 11, juncusol]
[1]
  SI CCD-19Lu/ COLO 205: 1.39
[2]
  SI CCD-19Lu/ COLO 320: 1.23
  SI COLO 205/ COLO 320: 0.88

## C=Cc1cc(O)cc2c1-c1ccc(OC)c(C)c1CC2 [Compound 12]
[1]
  SI CCD-19Lu/ COLO 205: 0.83
[2]
  SI CCD-19Lu/ COLO 320: 1.13
  SI COLO 205/ COLO 320: 1.36

## C=Cc1cc(CO)cc2c1-c1ccc(O)c(C)c1CC2 [Compound 13]
[1]
  SI CCD-19Lu/ COLO 205: 1.87
[2]
  SI CCD-19Lu/ COLO 320: 1.97
  SI COLO 205/ COLO 320: 1.05

## C=Cc1cc(C=O)cc2c1-c1ccc(O)c(C)c1CC2 [Compound 14]
[1]
  SI CCD-19Lu/ COLO 205: 1.16
[2]
  SI CCD-19Lu/ COLO 320: 1.68
  SI COLO 205/ COLO 320: 1.45

## C=Cc1cc(C(=O)O)cc2c1-c1ccc(O)c(C)c1CC2 [Compound 15]
[1]
  SI CCD-19Lu/ COLO 205: ≥2.20
[2]
  SI CCD-19Lu/ COLO 320: ≥2.10
  SI COLO 205/ COLO 320: 0.95

## C=Cc1c(C)c(O)cc2c1-c1ccc(OC)c(C)c1CC2 [Compound 16, compressin A]
[1]
  SI CCD-19Lu/ COLO 205: 0.78
[2]
  SI CCD-19Lu/ COLO 320: 1.46
  SI COLO 205/ COLO 320: 1.87

## C=Cc1cc(O)c(C)c2c1-c1ccc(O)c(C)c1CC2 [Compound 17, 2,7-dihydroxy-1,8-dimethyl-5-vinyl-9,10-dihydrophenanthrene]
[1]
  SI CCD-19Lu/ COLO 205: 1.50
[2]
  SI CCD-19Lu/ COLO 320: 1.85
  SI COLO 205/ COLO 320: 1.23

## C=Cc1c(CO)ccc2c1CCc1c-2ccc(O)c1C [Compound 18]
[1]
  SI CCD-19Lu/ COLO 205: 1.41
[2]
  SI CCD-19Lu/ COLO 320: 2.25
  SI COLO 205/ COLO 320: 1.59

## C=Cc1cc(O)cc2c1-c1cc(-c3cc4c(c(C)c3O)CCc3cc(O)cc(C=C)c3-4)c(O)c(C)c1CC2 [Compound 19, effususin A]
[1]
  SI CCD-19Lu/ COLO 205: 1.72
[2]
  SI CCD-19Lu/ COLO 320: 1.09
  SI COLO 205/ COLO 320: 0.63
[3]
  selectivity towards tumor cells (in words): lacked selectivity
